Here are results for one molecule from article PMC10163045.

The target of the experiment is T1, bZIP63 (Arabidopsis thaliana) (UniProt B9DGI8).
T1 sequence: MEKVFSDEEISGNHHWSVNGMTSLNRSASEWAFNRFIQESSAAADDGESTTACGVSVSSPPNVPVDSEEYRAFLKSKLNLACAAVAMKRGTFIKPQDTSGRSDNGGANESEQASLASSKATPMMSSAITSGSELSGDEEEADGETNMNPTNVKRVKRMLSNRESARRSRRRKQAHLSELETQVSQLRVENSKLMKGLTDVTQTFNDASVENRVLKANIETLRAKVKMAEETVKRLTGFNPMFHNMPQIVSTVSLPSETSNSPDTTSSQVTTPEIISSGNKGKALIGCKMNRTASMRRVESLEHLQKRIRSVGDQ
The experiment in a line: sequential DNA affinity purification with sequencing (sDAP-seq); SBPTag- and HaloTag-fused bZIPs co-expressed in vitro, incubated with adapter-ligated genomic DNA 1 h at room temperature; captured on streptavidin magnetic beads, eluted with 10 μM biotin, then captured on Halo beads; the bound DNA was sequenced.

Results are given in words; binding and its absence hold for the method and conditions named. Some results given as binding are weak or reduced against the parent protein; the word gives no strength.

B1: bZIP53 (protein, UniProt Q9LZP8 1-146)
chain: MGSLQMQTSPESDNDPRYATVTDERKRKRMISNRESARRSRMRKQKQLGDLINEVTLLKNDNAKITEQVDEASKKYIEMESKNNVLRAQASELTDRLRSLNSVLEMVEEISGQALDIPEIPESMQNPWQMPCPMQPIRASADMFDC
Consider B1, for which the binding entry is on record as “binds”.
